Measurements from paper doi:10.1101/2021.01.25.428185 (bioRxiv, 2021).
Results are given in words; binding and its absence hold for the method and conditions named. Some binding calls cover weakened binding; strength is not graded here.

Amino acid sequences for entries named in this document (tags omitted). Residues count along the entry.
UniProt G3XA57, residues 389-512: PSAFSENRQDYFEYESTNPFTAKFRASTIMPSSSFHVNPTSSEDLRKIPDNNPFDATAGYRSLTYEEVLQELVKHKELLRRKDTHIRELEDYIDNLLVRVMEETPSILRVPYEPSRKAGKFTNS

Biological target: C-terminal domain of mouse Rab11-FIP2 (Rab11-FIP2-C) (mouse) (UniProt G3XA57)
Test: two-hybrid

- binding: binds
Substance: C-terminal domain of mouse Rab11-FIP2 (Rab11-FIP2-C) (from UniProt G3XA57 389-512) (domain or fragment)
